Laboratory results: PubChem BioAssay AID588590 (National Center for Advancing Translational Sciences (NCATS), 2011)
Screen size: about 390,000 compounds; about 4,000 (1%) were called active. The shares of active, inactive and inconclusive entries below differ from those in the screen. Calls follow the shape of the dose curve; as a rule, active = well fitted inhibition curve with a large enough effect; inconclusive = small, poorly fitted or top-dose-only effect, or another doubt; inactive = no such curve, though single readings can be large or run the other way. A potency beside an inconclusive call is a rough fit, not a confirmed value.

By UniProt entry, the sequences of proteins in these tests, tags left out. Where a name states a change or a piece, a line headed by the entry shows the natural chain unless it says otherwise.
UniProt Q9UNA4: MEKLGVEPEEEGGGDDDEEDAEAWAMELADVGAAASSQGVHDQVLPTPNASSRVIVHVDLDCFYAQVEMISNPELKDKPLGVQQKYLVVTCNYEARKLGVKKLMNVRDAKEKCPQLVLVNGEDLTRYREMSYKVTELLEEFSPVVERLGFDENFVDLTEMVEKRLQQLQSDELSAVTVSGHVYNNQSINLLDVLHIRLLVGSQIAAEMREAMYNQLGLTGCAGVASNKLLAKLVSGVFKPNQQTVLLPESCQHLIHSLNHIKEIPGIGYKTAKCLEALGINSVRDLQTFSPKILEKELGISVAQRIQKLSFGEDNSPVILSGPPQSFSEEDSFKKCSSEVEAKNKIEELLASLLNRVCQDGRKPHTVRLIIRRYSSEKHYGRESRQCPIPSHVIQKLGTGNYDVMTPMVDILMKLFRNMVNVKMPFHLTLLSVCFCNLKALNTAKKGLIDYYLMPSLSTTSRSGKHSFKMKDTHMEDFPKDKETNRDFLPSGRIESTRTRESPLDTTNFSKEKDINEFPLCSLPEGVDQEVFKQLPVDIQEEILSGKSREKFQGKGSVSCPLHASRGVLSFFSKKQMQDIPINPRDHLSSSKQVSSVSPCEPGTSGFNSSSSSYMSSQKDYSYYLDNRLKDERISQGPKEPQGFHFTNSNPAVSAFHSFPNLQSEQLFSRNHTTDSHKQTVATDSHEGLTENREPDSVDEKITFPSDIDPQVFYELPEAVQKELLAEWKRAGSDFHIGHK

Target: DNA polymerase iota (Homo sapiens) (UniProt Q9UNA4)
Assay: qHTS for Inhibitors of Polymerase Iota
Conditions: Pol iota fluorescent replication assay, 10 min; series mostly up to 115 µM; activity, negative = inhibition: at the top concentration
In short: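 Pol iota at 10 nM preincubated 15 min with compounds at room temperature; reaction started with fluorescent substrate, 50 nM final. Fluorescence read kinetically at 0 and 10 min; buffer-only wells as negative control.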
Potency is read from the fitted curve at half-maximal effect.

Row | SMILES | Potency | activity, negative = inhibition
1 | O=C(CN1CCCC1)N1CCN(c2ccccc2)CC1 | inconclusive: 89.1 µM [inhibitor, single point] | –
2 | CCOC(=O)c1cnn(-c2ccc(C(=O)Nc3ccc(C(C)=O)cc3)cc2)c1N | inconclusive: 89.1 µM [inhibitor, single point] | –
3 | COc1ccc2c(-c3ccccc3)cc(N3CCOCC3)nc2c1 | – | inactive: 0.153%
4 | COc1cccc(Cl)c1NC(=O)N1CCN(c2cc(C)nc3ccccc23)CC1 | – | inactive: 137%
5 | CCCCn1c(N)c(N(CCOC)C(=O)CCC2CCCCC2)c(=O)[nH]c1=O | inconclusive: 89.1 µM [inhibitor, partial curve, poor fit] | –
6 | CN1CCN(C(=O)CSc2nc(-c3cccs3)ccc2C#N)CC1 | inconclusive: 11.2 µM [inhibitor, partial curve, poor fit] | –
7 | COc1ccc(-c2nc3cc(C)ccn3c2NC2CCCCC2)cc1SC1CCCCC1 | inconclusive: 15.8 µM [inhibitor, partial curve] | –
8 | Cc1ccccc1C(=O)Nc1nnc(S(=O)(=O)N2CCCCC2)s1 | inconclusive: 3.16 µM [inhibitor, single point] | –
9 | CCc1cc(C(=O)OCC(=O)N2CCC(c3ccccc3)=N2)sc1C | inconclusive: 31.6 µM [inhibitor, partial curve, poor fit] | –
10 | CC(C)Cn1c(N)c(C(=O)COC(=O)c2nccnc2N)c(=O)n(C)c1=O | inconclusive: 100 µM [inhibitor, partial curve, poor fit] | –
11 | c1ccc(-c2nc(NCc3ccco3)c3ccccc3n2)cc1 | inconclusive: 28.2 µM [inhibitor, partial curve] | –
12 | Cc1nc2cccnc2n1-c1cccc(C(=O)NCCN(C)C)c1 | – | inactive: 10%
13 | N#Cc1c(-c2ccncc2)c2c([nH]c1=S)CCCC2 | – | inactive: -1.45%
14 | Cc1cc(S(=O)(=O)NC(C)c2nnc3ccccn23)ccc1Br (stereo not drawn) | – | inactive: 16.8%
15 | CCCC1=NN2C(=N)/C(=C\c3cc(C)n(-c4cccc(C)c4)c3C)C(=O)N=C2S1 | inconclusive: 31.6 µM [inhibitor, single point] | –
16 | COc1ccc(C2(C(=O)N3CCCC3)CCOCC2)cc1OC | inconclusive: 2.82 µM [inhibitor, full curve, poor fit] | –
17 | C=C(C)C(=O)Nc1cccc(C2=NOC3(C2)C[C@@H](C(N)=O)N(C(=O)c2ccc(Cl)cc2)C3)c1 (stereo partly drawn) | active: 35.5 µM | –
18 | CCc1ccc(CNC(=O)c2cnc3sc(N4CCOCC4)nn3c2=O)cc1 | – | inactive: -12.7%
19 | O=C(O)c1cc(-c2ccc(Cl)c(Cl)c2)n(-c2ccc(F)cc2)n1 | inconclusive: 10 µM [inhibitor, partial curve] | –
20 | Cc1cnc(C(=O)OCC(=O)Nc2ncc(Cl)cc2Cl)cn1 | inconclusive: 50.1 µM [inhibitor, single point] | –
21 | O=C(OCC(=O)N1CCCCCC1)c1ccc(Cl)c(S(=O)(=O)N2CCCC2)c1 | – | inactive: -19%
22 | O=C(COC(=O)Cc1ccc(Br)cc1)NCc1ccc2c(c1)OCO2 | – | inactive: 28.5%

3 of these compounds, set out differently:
Row	SMILES	Potency	activity, negative = inhibition
8	Cc1ccccc1C(=O)Nc1nnc(S(=O)(=O)N2CCCCC2)s1	inconclusive: 3.16 µM [inhibitor, single point]	–
12	Cc1nc2cccnc2n1-c1cccc(C(=O)NCCN(C)C)c1	–	inactive: 10%
18	CCc1ccc(CNC(=O)c2cnc3sc(N4CCOCC4)nn3c2=O)cc1	–	inactive: -12.7%

(listing goes on)

Row | SMILES | Potency | activity, negative = inhibition
23 | CCC(=O)Nc1nc(N)n(-c2ccccc2)n1 | inconclusive: 1.58 µM [inhibitor, partial curve, poor fit] | –
24 | O=C(c1cc(-c2cccc(Br)c2)nc2ccccc12)N1CCCC1 | inconclusive: 79.4 µM [inhibitor, single point] | –
25 | CN(CC(=O)Nc1ccc(F)cc1)C(=O)COC(=O)Cc1cccs1 | – | inactive: 13.2%
26 | Cc1cc(F)ccc1S(=O)(=O)Nc1ccc(O)c(Sc2ncn[nH]2)c1 | inconclusive: 31.6 µM [inhibitor, full curve] | –
27 | O=C(O)c1cc2c(N3CCC(Cc4ccccc4)CC3)ncnc2s1 | – | inactive: -3.04%
28 | CSCCC(NS(=O)(=O)c1ccc(C)c(C(=O)O)c1)C(=O)O (stereo not drawn) | – | inactive: -22.2%
29 | Cc1cc(C)cc(SCc2noc(C(=O)NCCN(C)C)c2C(=O)NCCN(C)C)c1 | inconclusive: 14.1 µM [inhibitor, full curve] | –
30 | CC(=O)c1cccc(NS(=O)(=O)c2cc3c(cc2C)n(C)c(=O)c(=O)n3C)c1 | – | inactive: 23.5%
31 | CSc1ccc(NC(=O)CSc2nc3[nH]c(=O)cc(O)c3s2)cc1 | inconclusive: 6.31 µM [inhibitor, full curve, poor fit] | –
32 | Cc1ccc2c(=O)c(C(=O)c3ccc(F)cc3)cn(CC(=O)Nc3ccc4c(c3)OCCO4)c2n1 | inconclusive: 89.1 µM [inhibitor, single point] | –
33 | O=C(O)C1=NN(c2cc(Cl)c(S(=O)(=O)O)cc2Cl)C(=O)C1 | active: 1.58 µM | –
34 | COC(=O)c1ccc(NC(=O)CSc2nnc3c4ccccc4n(C(C)C)c3n2)cc1 | inconclusive: 3.16 µM [inhibitor, full curve, poor fit] | –
35 | Cc1ccc(-c2nnn(CC(=O)N3CCN(c4nc5ccccc5s4)CC3)n2)cc1 | inconclusive: 89.1 µM [inhibitor, single point] | –
36 | O=C(CSc1ccc2nnc(-c3ccc(F)cc3)n2n1)NCc1ccco1 | inconclusive: 56.2 µM [inhibitor, partial curve, poor fit] | –
37 | C=C1C(=O)C=C2CN(C(=O)c3ccccc3)[C@@](Cc3ccc(F)cc3)(C(=O)OC)[C@@H]12 | inconclusive: 39.8 µM [inhibitor, single point] | –
38 | CN1CCCC(C(=O)C(C#N)c2ccccc2)C1 (stereo not drawn) | inconclusive: 15.8 µM [inhibitor, partial curve, poor fit] | –
39 | Cc1ccc(-c2ccccc2NC(=O)CS(=O)CC(=O)Nc2ccc(C)c(Cl)c2)o1 (stereo not drawn) | inconclusive: 31.6 µM [inhibitor, single point] | –
40 | Cc1nnsc1NC(=O)OCc1ccccc1Cl | inconclusive: 0.316 µM [inhibitor, full curve, poor fit] | –
41 | Cc1ccc(-c2noc(C3CCCN(S(=O)(=O)c4ccc(S(=O)(=O)N(C)C)cc4)C3)n2)o1 (stereo not drawn) | inconclusive: 79.4 µM [inhibitor, partial curve, poor fit] | –
42 | COc1ccc(/C=C/c2ccc3ccccc3n2)c(OC)c1 | – | inactive: 11.2%
43 | Cn1c(=O)c2c(nc(NCc3ccco3)n2Cc2ccccc2Cl)n(C)c1=O | inconclusive: 5.01 µM [inhibitor, full curve, poor fit] | –
